Test results as given in PubChem BioAssay AID1259415 (National Center for Advancing Translational Sciences (NCATS), 2018).
Among all 410,000 compounds or so, about 18,000 (4.4%) were called active. This list was built around the results that the source calls inconclusive (neither active nor inactive); the mix of calls is not that of the screen. Rule as the data show it: active = activity change below about -60%; inconclusive = no clear call, values can overlap the other calls; inactive = above about -39%.

Assay: qHTS Assay for inhibitors of the human cytomegalovirus (HCMV)
Conditions: HFF cells, HCMV-luciferase reporter, 72 h; at 57.5 µM; stronger effect = lower value
Procedure, shortened: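 Two-dose cell screen: HFF monolayers treated with compounds and infected with luciferase-expressing HCMV at 1 PFU/cell, 72 h at 37C, then lysed for luciferase measurement.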
% is scaled to controls: 0 for no effect and ±100 for the full control effect.

| SMILES | activity change, negative = inhibition |
| --- | --- |
| C=CCCC[C@@H]1OC(=O)CNC(=O)C([C@@H](C)CC)NC(=O)[C@@H]2CCCN2C(=O)C([C@@H](C)CC)OC(=O)[C@H](Cc2ccccc2)N(C)C(=O)[C@H](C(C)C)NC(=O)C1(C)C (some centres not stated) | active: -72.9% |
| Cc1ccc(S(=O)(=O)N2CC3(O)CN(C(=O)OC(C)C)N(C(=O)OC(C)C)CC3(OC(=O)Nc3cccs3)C2)cc1 (configuration not stated) | inactive: 14.4% |
| COc1ccc(CNC(=O)c2cc(-c3ccc(OC)c(OC)c3)nc3n[nH]c(-c4ccc(C)cc4)c23)cc1 | active: -97.5% |
| Cc1cccc(S(=O)(=O)C(C#N)c2nc3ccccc3nc2N2CC(C)OC(C)C2)c1 (configuration not stated) | inactive: -18.7% |
| CN(c1ccccc1)c1ccc(/C=C(\C#N)c2nnc3n2CCCCC3)cc1[N+](=O)[O-] | active: -77.7% |
| COC(=O)c1cc(-c2ccc(NC(C)=O)cc2)nc2ccccc12 | active: -68.1% |
| O=C(c1cc(Sc2cccc(Cl)c2)nc2ccccc12)N1CCN(c2ccccn2)CC1 | inconclusive: -45.5% |
| Cc1ccccc1OCCC(=O)Nc1cc(S(=O)(=O)N2CCOCC2)ccc1OC(C)C | inconclusive: -49% |
| CCOCCCNC(=O)CN1C(=O)COc2ccc(S(=O)(=O)N3CCOCC3)cc21 | inconclusive: 0% |
| O=C(N/N=C/c1c(Cl)cccc1Cl)c1n[nH]c2c1CCCC2 | inconclusive: -41% |
| COc1cccc(-c2cc(C(F)(F)F)n3nc(C(=O)N4CCCCC4c4cccnc4)cc3n2)c1 (configuration not stated) | active: -68.2% |
| O=C(Nc1cccc(S(=O)(=O)N2CCCCC2)c1)c1ccc(OCC2CCCO2)cc1 (configuration not stated) | active: -66.2% |
| CC1=CC(=O)N(c2ccc(C)cc2)C1c1ccc(Cl)cc1 (configuration not stated) | inactive: 31.2% |
| CC(=NNC(=O)c1ccncc1)c1ccc2ccccc2c1O | active: -76.7% |
| CCCN(CCC)c1cc(C)nc2nc(-c3ccc(Cl)cc3)nn12 | inactive: 6.23% |
| CSCC[C@H](NC(=O)c1cccc(S(=O)(=O)N2CCCCC2)c1)c1nc2ccccc2[nH]1 | inconclusive: -41.2% |
| Cc1cccn2c(=O)c(C=O)c(N3CCCCC3)nc12 | inconclusive: -52.4% |
| CCOC(=O)C(=O)NN=C(c1ccccc1)c1ccccc1 | inconclusive: -51% |
| O=c1[nH]c(-[n+]2ccc3ccccc3c2)c(/C=N/N=C(\[O-])c2ccccc2)s1 | inconclusive: -46.5% |
| CC(=O)Nc1ccc(NC(=O)COC(=O)C2(c3ccc(Cl)cc3)CCCC2)cc1 | inconclusive: -56.5% |
| CO/N=C/c1ccc(Oc2ccc([N+](=O)[O-])cc2[N+](=O)[O-])c(OC)c1 | inactive: 21.4% |
| COc1ccc(-n2c(O)c(/C(C)=N/N3CCCCCC3)c(=O)[nH]c2=O)cc1 | inconclusive: -53.4% |
| CCCCOc1ccc(C(=O)NCC(=O)NNC(=O)C2COc3ccccc3O2)cc1 (configuration not stated) | inconclusive: -53.5% |
| CCOC(=O)c1ccccc1NC(=O)/C=C/C(=O)O | inactive: 6.8% |
| COc1ccc(-n2c(-c3ccc(Cl)cc3)c[nH]c2=S)cc1 | inconclusive: -53.2% |
| COc1cccc(C(C(=O)NC2CCCC2)N(Cc2cccnc2)C(=O)Cc2cccs2)c1 (configuration not stated) | inconclusive: -41.8% |

| SMILES | activity change, negative = inhibition |
| --- | --- |
| Cc1nc(-c2ccncc2)sc1C(=O)Nc1ccc(Br)cc1 | active: -72% |
| Cc1ccc(Cl)cc1NC(=O)C(NS(=O)(=O)c1ccc2c(c1)CCC(=O)N2)c1ccccc1 (configuration not stated) | inactive: -10% |
| O=C(c1cc(-c2ccccc2)nc2ccccc12)N1CCc2ccccc2C1 | inconclusive: -40.7% |
| COc1ccccc1C(CCNCc1ccccc1)c1ccc(OC(C)C)cc1 (configuration not stated) | active: -102% |
| CC(N=c1ccccn1C(=O)Nc1ccc(F)cc1)c1ccco1 (configuration not stated) | inconclusive: -43.7% |
| [O-][n+]1onc2c1CCc1nnc(-c3ccccc3)cc1-2 | inconclusive: -50.8% |
| CS(=O)(=O)c1ccccc1C(=O)NCCC(c1ccccc1)c1ccccc1 | inconclusive: -41.8% |
| Cc1cc([N+](=O)[O-])nn1CC(=O)Nc1ccc(Cc2ccncc2)cc1 | active: -63.5% |
| Cc1ccc(-n2ccn(CC(=O)c3ccc(F)cc3)c(=O)c2=O)cc1C | inactive: -38.6% |
| Cc1cccc(C)c1NC(=O)c1cc(S(=O)(=O)N2CCCc3ccccc32)ccc1F | inconclusive: -46.1% |
| Cc1ccc2c(c1)N1C(=O)c3ccccc3C1C1=C(CC(C)(C)CC1=O)N2 (configuration not stated) | inconclusive: -55.9% |
| CC(C)c1ccc(NC(=O)C(Cc2ccccc2)n2cccc2)cc1 (configuration not stated) | inconclusive: -45.4% |
| CCOc1ccc(NC(=O)Cn2c(=O)n(CC(=O)NCCc3ccccc3)c(=O)c3sccc32)cc1 | inconclusive: -51.3% |
| CCN1C(=O)[C@H]2[C@@H](c3ccc(-c4ccc(C(C)=O)cc4)c(OC)c3)N[C@@](Cc3ccccc3)(C(=O)OC)[C@H]2C1=O | inactive: 24.9% |
| Cc1c(C(=O)OCC(=O)NCc2ccco2)oc2ccccc12 | inconclusive: -47.9% |
| Cc1ccc(Nc2nc(CSc3nnc(-c4ccccc4)n3C)cs2)cc1 | inconclusive: -49.8% |
| O=C(C1=C[C@@H](C2CC2)C[C@@H](OCc2ccc(CO)cc2)O1)N1CCN(Cc2ccccc2)CC1 | inconclusive: -46.1% |
| Cn1c(=O)c2c(nc(N3CCN(C(=O)c4ccco4)CC3)n2CCSc2ncccn2)n(C)c1=O | inconclusive: -40.3% |
| CC(C)n1ncc2c(C(=O)N3CCN(c4ccc(F)cc4)CC3)cc(-c3ccccc3)nc21 | active: -70.5% |
| Cc1ccc(CN2CCN(CC(=O)NCCCN3CCN(c4ccc(F)cc4)CC3)C2=O)cc1 | inconclusive: -58.7% |
| COc1ccc(N(C(=O)CCl)C(C(=O)NCCc2ccccc2)c2cccs2)cc1 (configuration not stated) | active: -100% |
| COc1ccc(C)cc1-n1cnnn1 | inactive: 35% |
| CC1CCN(C(=O)COC(=O)COc2ccccc2C#N)CC1 | inconclusive: -42.5% |
| Cc1cc(=O)oc2c3c(cc(OCC(=O)NCCC(=O)O)c12)OC(C)(C)CC3 | inactive: -4.78% |
| Cc1ccc(CSCCNS(=O)(=O)c2ccccc2)cc1 | inconclusive: -46.1% |
| O=C(CN(Cc1ccc(F)cc1)C(=O)c1ccco1)NCc1ccc(F)cc1 | inactive: -9.77% |

A few values from above.
Under activity change, negative = inhibition, `Cc1cc(=O)oc2c3c(cc(OCC(=O)NCCC(=O)O)c12)OC(C)(C)CC3` is listed with inactive: -4.78%
Under activity change, negative = inhibition, `CC(C)n1ncc2c(C(=O)N3CCN(c4ccc(F)cc4)CC3)cc(-c3ccccc3)nc21` is listed with active: -70.5%
